{"source": "patent US10563263B2", "about": "“Genetic polymorphisms associated with statin response and cardiovascular diseases, methods of detection and uses thereof” (CELERA CORPORATION, priority 2010, dated 2020)", "test_system": "CHD", "experiment": "Meta-analysis of CARE and WOSCOPS combined, synergy index, CHD endpoint", "format": "in vivo, human", "excerpt": "Tables 4-5 provide meta-analyses of CARE and WOSCOPS combined (2nd section of each table) for two endpoints (CHD and CVD) and three genetic models (dominant, recessive, and additive), as well as logistic regression analyses of CARE (3rd section of each table) and WOSCOPS (4th section of each table) individually.\nTables 12 and 17 provide results of meta-analysis of the CARE and WOSCOPS sample sets combined by direct genotyping and by imputing genotypes.\n“P” indicates the p-value, and “P(R)” (or “P.R.”) indicates the p-value random effect. Both of these are p-values corresponding to a statistical test of whether the combined synergy index is equal to one but use different assumptions to derive the p-value. “P” is calculated using a fixed effects model, and “P(R)” is calculated using a random effects model.\n“OR” indicates the odds ratio (synergy index) calculated from a fixed effects model, and “OR(R)” (or “OR.R.”) indicates the odds ratio (synergy index) calculated from a random effects model.", "key": {"[1]": {"settings": "rs4146972 allele T DOMINANT Genotyped"}, "[2]": {"settings": "rs4238087 allele G DOMINANT Imputed"}, "[3]": {"settings": "rs4251569 allele T ADDITIVE Imputed"}, "[4]": {"settings": "rs4251569 allele T DOMINANT Imputed"}, "[5]": {"settings": "rs4273613 allele T ADDITIVE Imputed"}, "[6]": {"settings": "rs4273613 allele T DOMINANT Imputed"}, "[7]": {"settings": "rs4291049 allele T RECESSIVE Imputed"}, "[8]": {"settings": "rs4315598 allele T ADDITIVE Imputed"}, "[9]": {"settings": "rs4315598 allele T GENOTYPIC Imputed"}, "[10]": {"settings": "rs4315598 allele T RECESSIVE Imputed"}, "[11]": {"settings": "rs4321395 allele A DOMINANT Imputed"}, "[12]": {"settings": "rs4321596 allele T RECESSIVE Genotyped"}, "[13]": {"settings": "rs4324417 allele T DOMINANT Imputed"}, "[14]": {"settings": "rs4328619 allele G DOMINANT Genotyped"}, "[15]": {"settings": "rs4338909 allele T ADDITIVE Imputed"}, "[16]": {"settings": "rs4370878 allele G DOMINANT Imputed"}, "[17]": {"settings": "rs4379434 allele T DOMINANT Genotyped"}, "[18]": {"settings": "rs4416407 allele T DOMINANT Imputed"}, "[19]": {"settings": "rs4417899 allele C RECESSIVE Imputed"}, "[20]": {"settings": "rs4442732 allele A ADDITIVE Imputed"}, "[21]": {"settings": "rs4444612 allele G ADDITIVE Imputed"}, "[22]": {"settings": "rs4444612 allele G GENOTYPIC Imputed"}, "[23]": {"settings": "rs4444612 allele G RECESSIVE Imputed"}, "[24]": {"settings": "rs4450660 allele C DOMINANT Imputed"}, "[25]": {"settings": "rs4509702 allele C DOMINANT Imputed"}, "[26]": {"settings": "rs4526920 allele G GENOTYPIC Imputed"}, "[27]": {"settings": "rs4533145 allele T DOMINANT Imputed"}, "[28]": {"settings": "rs4557006 allele A DOMINANT Imputed"}, "[29]": {"settings": "rs4570530 allele C DOMINANT Imputed"}, "[30]": {"settings": "rs4615971 allele C DOMINANT Imputed"}, "[31]": {"settings": "rs4628119 allele A DOMINANT Imputed"}, "[32]": {"settings": "rs4664443 allele G ADDITIVE Imputed"}, "[33]": {"settings": "rs4688259 allele T DOMINANT Imputed"}, "[34]": {"settings": "rs4688632 allele G RECESSIVE Imputed"}, "[35]": {"settings": "rs4695284 allele A ADDITIVE Imputed"}, "[36]": {"settings": "rs4700302 allele A ADDITIVE Imputed"}, "[37]": {"settings": "rs4702720 allele A ADDITIVE Imputed"}, "[38]": {"settings": "rs4702720 allele A DOMINANT Imputed"}, "[39]": {"settings": "rs4711091 allele G GENOTYPIC Genotyped"}, "[40]": {"settings": "rs4714484 allele A ADDITIVE Imputed"}, "[41]": {"settings": "rs4736802 allele G DOMINANT Imputed"}, "[42]": {"settings": "rs4760785 allele A ADDITIVE Imputed"}, "[43]": {"settings": "rs4760785 allele A DOMINANT Imputed"}, "[44]": {"settings": "rs4760785 allele A GENOTYPIC Imputed"}, "[45]": {"settings": "rs4760894 allele T ADDITIVE Imputed"}, "[46]": {"settings": "rs4760894 allele T DOMINANT Imputed"}}, "note": "The source gives many values for each of these; only a part stands here.", "data": [{"smiles": "CC[C@H](C)C(=O)O[C@H]1C[C@H](O)C=C2C=C[C@H](C)[C@H](CC[C@@H](O)C[C@@H](O)CC(=O)O)[C@H]21", "note": "[Pravastatin, pravastatin]", "values": [{"measurement": "OR(R)", "setting": "rs4076201 allele G RECESSIVE Imputed", "value": 2.9721}, {"measurement": "OR", "setting": "[1]", "value": 1.4758}, {"measurement": "OR(R)", "setting": "[1]", "value": 1.4758}, {"measurement": "OR", "setting": "[2]", "value": 0.6487}, {"measurement": "OR(R)", "setting": "[2]", "value": 0.6459}, {"measurement": "Meta-analysis OR", "setting": "rs4243071 allele G vs A (ref)", "value": 0.43}, {"measurement": "OR", "setting": "[3]", "value": 0.6585}, {"measurement": "OR(R)", "setting": "[3]", "value": 0.6585}, {"measurement": "OR", "setting": "[4]", "value": 0.6487}, {"measurement": "OR(R)", "setting": "[4]", "value": 0.6458}, {"measurement": "OR", "setting": "[5]", "value": 0.2451}, {"measurement": "OR(R)", "setting": "[5]", "value": 0.2451}, {"measurement": "OR", "setting": "[6]", "value": 0.2509}, {"measurement": "OR(R)", "setting": "[6]", "value": 0.2509}, {"measurement": "OR", "setting": "[7]", "value": 0.5605}, {"measurement": "OR(R)", "setting": "[7]", "value": 0.5605}, {"measurement": "OR", "setting": "[8]", "value": 1.369}, {"measurement": "OR(R)", "setting": "[8]", "value": 1.369}, {"measurement": "OR", "setting": "[9]", "value": 1.9445}, {"measurement": "OR(R)", "setting": "[9]", "value": 1.9445}, {"measurement": "OR", "setting": "[10]", "value": 1.6981}, {"measurement": "OR(R)", "setting": "[10]", "value": 1.6981}, {"measurement": "OR", "setting": "[11]", "value": 0.5856}, {"measurement": "OR(R)", "setting": "[11]", "value": 0.5856}, {"measurement": "OR", "setting": "[12]", "value": 2.3233}, {"measurement": "OR(R)", "setting": "[12]", "value": 2.3233}, {"measurement": "OR", "setting": "[13]", "value": 1.6531}, {"measurement": "OR(R)", "setting": "[13]", "value": 1.6531}, {"measurement": "OR", "setting": "[14]", "value": 0.6704}, {"measurement": "OR(R)", "setting": "[14]", "value": 0.6704}, {"measurement": "OR", "setting": "[15]", "value": 1.3842}, {"measurement": "OR(R)", "setting": "[15]", "value": 1.3842}, {"measurement": "OR", "setting": "[16]", "value": 1.5785}, {"measurement": "OR(R)", "setting": "[16]", "value": 1.5785}, {"measurement": "OR", "setting": "[17]", "value": 1.6163}, {"measurement": "OR(R)", "setting": "[17]", "value": 1.6163}, {"measurement": "OR", "setting": "[18]", "value": 1.6929}, {"measurement": "OR(R)", "setting": "[18]", "value": 1.6929}, {"measurement": "OR", "setting": "[19]", "value": 0.5892}, {"measurement": "OR(R)", "setting": "[19]", "value": 0.5892}, {"measurement": "OR", "setting": "[20]", "value": 0.6531}, {"measurement": "OR(R)", "setting": "[20]", "value": 0.6531}, {"measurement": "OR", "setting": "[21]", "value": 1.3768}, {"measurement": "OR(R)", "setting": "[21]", "value": 1.3768}, {"measurement": "OR", "setting": "[22]", "value": 1.9589}, {"measurement": "OR(R)", "setting": "[22]", "value": 1.9589}, {"measurement": "OR", "setting": "[23]", "value": 1.7015}, {"measurement": "OR(R)", "setting": "[23]", "value": 1.7015}, {"measurement": "OR", "setting": "[24]", "value": 1.5918}, {"measurement": "OR(R)", "setting": "[24]", "value": 1.5918}, {"measurement": "OR", "setting": "[25]", "value": 1.5785}, {"measurement": "OR(R)", "setting": "[25]", "value": 1.5785}, {"measurement": "OR", "setting": "[26]", "value": 2.2431}, {"measurement": "OR(R)", "setting": "[26]", "value": 2.2431}, {"measurement": "OR", "setting": "[27]", "value": 0.5529}, {"measurement": "OR(R)", "setting": "[27]", "value": 0.5529}, {"measurement": "OR", "setting": "[28]", "value": 0.5972}, {"measurement": "OR(R)", "setting": "[28]", "value": 0.5972}, {"measurement": "OR", "setting": "[29]", "value": 1.5785}, {"measurement": "OR(R)", "setting": "[29]", "value": 1.5785}, {"measurement": "OR", "setting": "[30]", "value": 1.5635}, {"measurement": "OR(R)", "setting": "[30]", "value": 1.5635}, {"measurement": "Meta-analysis OR", "setting": "rs4626316 allele A vs G (ref)", "value": 0.35}, {"measurement": "OR", "setting": "[31]", "value": 0.6205}, {"measurement": "OR(R)", "setting": "[31]", "value": 0.6205}, {"measurement": "OR", "setting": "[32]", "value": 0.7086}, {"measurement": "OR(R)", "setting": "[32]", "value": 0.7086}, {"measurement": "OR", "setting": "[33]", "value": 1.6935}, {"measurement": "OR(R)", "setting": "[33]", "value": 1.6935}, {"measurement": "OR", "setting": "[34]", "value": 0.5987}, {"measurement": "OR(R)", "setting": "[34]", "value": 0.5987}, {"measurement": "Meta-analysis OR", "setting": "rs4689078, A1 (non-ref) G, A2 (ref) A", "value": 1.27}, {"measurement": "OR", "setting": "[35]", "value": 1.894}, {"measurement": "OR(R)", "setting": "[35]", "value": 1.894}, {"measurement": "OR", "setting": "[36]", "value": 0.5243}, {"measurement": "OR(R)", "setting": "[36]", "value": 0.5243}, {"measurement": "OR", "setting": "[37]", "value": 0.6414}, {"measurement": "OR(R)", "setting": "[37]", "value": 0.6414}, {"measurement": "OR", "setting": "[38]", "value": 0.5989}, {"measurement": "OR(R)", "setting": "[38]", "value": 0.5989}, {"measurement": "OR", "setting": "[39]", "value": 1.8967}, {"measurement": "OR(R)", "setting": "[39]", "value": 1.8967}, {"measurement": "OR", "setting": "[40]", "value": 0.6276}, {"measurement": "OR(R)", "setting": "[40]", "value": 0.6276}, {"measurement": "Meta-analysis OR", "setting": "rs4726711 allele G vs A (ref)", "value": 0.71}, {"measurement": "OR", "setting": "[41]", "value": 1.6304}, {"measurement": "OR(R)", "setting": "[41]", "value": 1.6304}, {"measurement": "OR", "setting": "[42]", "value": 0.7392}, {"measurement": "OR(R)", "setting": "[42]", "value": 0.7392}, {"measurement": "OR", "setting": "[43]", "value": 0.6285}, {"measurement": "OR(R)", "setting": "[43]", "value": 0.6285}, {"measurement": "OR", "setting": "[44]", "value": 0.574}, {"measurement": "OR(R)", "setting": "[44]", "value": 0.574}, {"measurement": "OR", "setting": "[45]", "value": 0.7392}, {"measurement": "OR(R)", "setting": "[45]", "value": 0.7392}, {"measurement": "OR", "setting": "[46]", "value": 0.6285}, {"measurement": "OR(R)", "setting": "[46]", "value": 0.6285}, {"measurement": "OR", "setting": "rs4760894 allele T GENOTYPIC Imputed", "value": 0.574}]}]}
